Assay results published in publication PMC8945937.
For at least one entry, the source does not settle the construct or the ends of the probe. A weaker result is weaker than the reference pair of the same experiment.

Amino acid sequences for entries named in this document (tags omitted). A change or cut given only in a name is not applied to a line headed by its entry.
UniProt Q00987: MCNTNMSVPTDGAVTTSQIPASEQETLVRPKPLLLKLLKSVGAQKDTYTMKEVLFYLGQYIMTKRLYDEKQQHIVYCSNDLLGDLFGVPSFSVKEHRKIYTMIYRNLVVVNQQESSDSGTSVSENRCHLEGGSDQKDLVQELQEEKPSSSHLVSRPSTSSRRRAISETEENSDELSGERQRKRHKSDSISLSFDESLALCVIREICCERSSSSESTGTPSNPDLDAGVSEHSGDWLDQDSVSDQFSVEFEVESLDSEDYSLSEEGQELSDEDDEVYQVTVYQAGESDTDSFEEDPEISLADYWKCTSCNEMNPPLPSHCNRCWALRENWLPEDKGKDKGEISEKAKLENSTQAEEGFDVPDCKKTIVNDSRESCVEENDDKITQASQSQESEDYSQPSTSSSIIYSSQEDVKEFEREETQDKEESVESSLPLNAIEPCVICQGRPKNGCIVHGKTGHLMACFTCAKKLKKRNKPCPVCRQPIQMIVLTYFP

Biological target: MDM2 (purified endogenous / rhMDM2) (human) (UniProt Q00987)
Experiment: EMSA with UV cross-linking, immunoblot
Details: biotinylated UTP (pull-down); unlabeled in gel shift; native protein; label: biotin-UTP internal in pull-down; probe letters rebuilt from the primers and the genome; part of a longer molecule

CCUCCCAUAUUCUCCCGUCUAGCACCUUUGAUUUCUCCCAAACCCGGCAGCCCGAGACUGUUGCAAACCGGCGCCACAGGGCGCAAAGGGGAUUUGUCUCUUCUGAAACCUGGCUGAGAAAUUGGGAACUCCGUGUGGGAGGCGUGGGGGUGGGACGGUGGGGUACAGACUGGCAGAGAGCAGGCAACCUCCCUCUCGCCCUAGCCCAGCUCUGGAACAGGCAGACACA [c-Myc 5'UTR IRES RNA probe (probe 2)]
binding result: binds more weakly
